Data: PMC7086348
Results are given in words; binding and its absence hold for the method and conditions named. Binding seen in cells or lysates may run through a third protein. Binding calls can cover weak binding; strength is not graded here. Tags and fused reporters may be left off the sequences shown.

Tests used:
[1] = biological target: T1, HA-RFP-TMEM16A (UniProt Q8BHY3); test: co-IP; MASMCs co-transfected with HA-RFP-TMEM16A and His-p62; immunoprecipitation with HA or His antibody, blot for His or HA
T1 sequence: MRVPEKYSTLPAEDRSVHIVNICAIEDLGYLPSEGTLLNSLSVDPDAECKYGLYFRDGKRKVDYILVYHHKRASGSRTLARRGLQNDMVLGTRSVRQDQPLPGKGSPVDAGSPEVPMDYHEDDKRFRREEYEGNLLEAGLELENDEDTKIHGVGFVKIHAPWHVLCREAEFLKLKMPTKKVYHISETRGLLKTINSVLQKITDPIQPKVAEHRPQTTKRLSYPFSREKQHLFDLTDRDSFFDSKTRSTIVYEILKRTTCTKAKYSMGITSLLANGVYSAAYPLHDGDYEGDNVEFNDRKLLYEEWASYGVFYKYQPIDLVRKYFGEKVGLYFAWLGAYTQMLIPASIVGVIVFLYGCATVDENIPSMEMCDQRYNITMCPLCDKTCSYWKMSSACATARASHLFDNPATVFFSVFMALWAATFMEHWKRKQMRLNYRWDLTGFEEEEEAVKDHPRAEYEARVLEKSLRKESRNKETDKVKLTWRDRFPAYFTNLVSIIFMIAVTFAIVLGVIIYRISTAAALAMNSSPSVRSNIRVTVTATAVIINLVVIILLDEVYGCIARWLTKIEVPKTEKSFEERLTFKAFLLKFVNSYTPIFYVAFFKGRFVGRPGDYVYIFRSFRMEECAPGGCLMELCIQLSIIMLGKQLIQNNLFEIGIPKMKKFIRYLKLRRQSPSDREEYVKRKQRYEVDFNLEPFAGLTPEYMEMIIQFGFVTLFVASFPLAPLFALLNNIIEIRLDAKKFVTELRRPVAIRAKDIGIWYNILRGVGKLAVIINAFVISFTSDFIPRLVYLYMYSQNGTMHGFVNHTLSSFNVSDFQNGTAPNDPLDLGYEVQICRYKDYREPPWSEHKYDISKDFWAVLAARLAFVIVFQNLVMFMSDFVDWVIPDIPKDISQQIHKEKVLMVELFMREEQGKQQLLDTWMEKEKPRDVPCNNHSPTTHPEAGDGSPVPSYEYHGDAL

[2] = biological target: His-p62; test: as above

Question: His-p62 was tested. Which binding [1] did it give?
Answer: binds

B1: HA-RFP-TMEM16A (protein, UniProt Q8BHY3 1-960)
chain: MRVPEKYSTLPAEDRSVHIVNICAIEDLGYLPSEGTLLNSLSVDPDAECKYGLYFRDGKRKVDYILVYHHKRASGSRTLARRGLQNDMVLGTRSVRQDQPLPGKGSPVDAGSPEVPMDYHEDDKRFRREEYEGNLLEAGLELENDEDTKIHGVGFVKIHAPWHVLCREAEFLKLKMPTKKVYHISETRGLLKTINSVLQKITDPIQPKVAEHRPQTTKRLSYPFSREKQHLFDLTDRDSFFDSKTRSTIVYEILKRTTCTKAKYSMGITSLLANGVYSAAYPLHDGDYEGDNVEFNDRKLLYEEWASYGVFYKYQPIDLVRKYFGEKVGLYFAWLGAYTQMLIPASIVGVIVFLYGCATVDENIPSMEMCDQRYNITMCPLCDKTCSYWKMSSACATARASHLFDNPATVFFSVFMALWAATFMEHWKRKQMRLNYRWDLTGFEEEEEAVKDHPRAEYEARVLEKSLRKESRNKETDKVKLTWRDRFPAYFTNLVSIIFMIAVTFAIVLGVIIYRISTAAALAMNSSPSVRSNIRVTVTATAVIINLVVIILLDEVYGCIARWLTKIEVPKTEKSFEERLTFKAFLLKFVNSYTPIFYVAFFKGRFVGRPGDYVYIFRSFRMEECAPGGCLMELCIQLSIIMLGKQLIQNNLFEIGIPKMKKFIRYLKLRRQSPSDREEYVKRKQRYEVDFNLEPFAGLTPEYMEMIIQFGFVTLFVASFPLAPLFALLNNIIEIRLDAKKFVTELRRPVAIRAKDIGIWYNILRGVGKLAVIINAFVISFTSDFIPRLVYLYMYSQNGTMHGFVNHTLSSFNVSDFQNGTAPNDPLDLGYEVQICRYKDYREPPWSEHKYDISKDFWAVLAARLAFVIVFQNLVMFMSDFVDWVIPDIPKDISQQIHKEKVLMVELFMREEQGKQQLLDTWMEKEKPRDVPCNNHSPTTHPEAGDGSPVPSYEYHGDAL
Question: B1 was tested. Which binding [2] did it give?
Answer: binds
